From PubChem BioAssay AID248 (DTP/NCI, 2004)
The list is a part of this screen's results and no random one: it gathers tests that were run many times, whatever their T/C, doses with no T/C, and many T/C values between a quarter and a half above the control. Further doses and runs are listed elsewhere. T/C is the treated group as % of the vehicle group. Some doses have a count of surviving animals in place of a T/C: the source holds a T/C of zero for them, seemingly a mark for toxic or unscored doses. Some survivor counts are full or nearly so, which does not show that the dose was tolerated: survival well below the control is almost never listed, so the zero probably covers shortened survival too. Counts of survivors are from the toxicity check (mostly the fifth day) where no day follows; animals may have died later. Schedules are NCI's codes, taken here to give the interval after Q, in days (D) or hours (H), and the number of doses after X. Some molecules as drawn cover several salts, stereoisomers or complexes of the source; a dose is that of the sample tested. Some schedule codes hold Z or #, which are not explained here. Where survival is the endpoint, the PubChem record calls one and a half times the control and up active, and a quarter to a half above the control has no call in these data; cut-offs in other NCI protocols can differ. Some entries were tested several times; their values stand side by side, smallest first. Some T/C values carry the count of animals alive at the toxicity check (mostly the fifth day); without a count, all were alive then.

Test system: L1210 leukemia ip in BDF1 mice, survival T/C
Assay: NCI In Vivo Anticancer Drug Screen. Data for tumor model L1210 Leukemia (intraperitoneal) in B6D2F1 (BDF1) mice
Settings: T/C endpoint: mean survival time, higher T/C = longer survival
[1] = dose: 100.0 mg/kg/injection, schedule: Q01DX009 (ip), vehicle: saline
[2] = dose: 200.0 mg/kg/injection, schedule: Q01DX009 (ip), vehicle: saline with Tween-80
[3] = dose: 200.0 mg/kg/injection, schedule: Q01DX009 (ip), vehicle: Klucel (hydroxypropylcellulose) (HPC)
[4] = dose: 400.0 mg/kg/injection, schedule: Q01DX009 (ip), vehicle: Klucel (hydroxypropylcellulose) (HPC)
[5] = dose: 400.0 mg/kg/injection, schedule: Q01DX009 (ip), vehicle: saline with Tween-80

**Q.** What does the source list for `COc1c2c(cc3c1OCO3)[C@@]13CCN(C2)[C@@H]1CC=C[C@H]3O`?
**A.** survivor count (dose: 20.0 mg/kg/injection, schedule: Q01DX001 (ip), vehicle: carboxymethylcellulose (CMC)): 0 of 6; survivor count (dose: 40.0 mg/kg/injection, schedule: Q01DX001 (ip), vehicle: carboxymethylcellulose (CMC)): 0 of 6; survivor count (dose: 80.0 mg/kg/injection, schedule: Q01DX001 (ip), vehicle: carboxymethylcellulose (CMC)): 0 of 6

**Q.** For `Cn1cnc([N+](=O)[O-])c1[Se]c1ncnc2nc[nH]c12`, which survivor count (dose: 25.0 mg/kg/injection, schedule: Q01DX005 (ip), vehicle: other) is on record?
**A.** 6 of 6

**Q.** And the survivor count (dose: 100.0 mg/kg/injection, schedule: Q01DX005 (ip), vehicle: other)?
**A.** 0 of 6

**Q.** And the survivor count (dose: 200.0 mg/kg/injection, schedule: Q01DX005 (ip), vehicle: other)?
**A.** 0 of 6

**Q.** Which survivor count [1] does the source give for `CCOC(OCC)c1nc(N)c2cnn(C)c2n1` here?
**A.** 5 of 6

**Q.** What about the survivor count (dose: 200.0 mg/kg/injection, schedule: Q04DX002 (ip), vehicle: saline) of the same molecule?
**A.** 1 of 3

**Q.** What about the survivor count (dose: 400.0 mg/kg/injection, schedule: Q04DX002 (ip), vehicle: saline) of the same molecule?
**A.** 0 of 3

**Q.** With `O=C(CCCc1ccc(N(CCCl)CCCl)cc1)OCCc1ccccc1` as the molecule, how does the T/C (dose: 100.0 mg/kg/injection, schedule: Q04DX002 (ip), vehicle: saline) read?
**A.** 132 % of control

**Q.** For `COC1=C(OC)C(=O)C(Sc2ccc3ccccc3c2)=CC1=O`, which survivor count [2] is on record?
**A.** 1 of 6

**Q.** For `CC1(C)OC2OC(COS(C)(=O)=O)C(O)C2O1` (configuration not stated), which survivor count [3] is on record?
**A.** 6 of 6

**Q.** What about the survivor count [4] of the same molecule?
**A.** 6 of 6

**Q.** `CCCCN(CCCC)CCNCC(Cc1ccccc1)c1ccccc1` (configuration not stated) was tested. Which survivor count (dose: 200.0 mg/kg/injection, schedule: Q04DX002 (ip), vehicle: Klucel (hydroxypropylcellulose) (HPC)) did it give?
**A.** 1 of 3

**Q.** What about the survivor count (dose: 400.0 mg/kg/injection, schedule: Q04DX002 (ip), vehicle: Klucel (hydroxypropylcellulose) (HPC)) of the same molecule?
**A.** 0 of 3

**Q.** How did the survivor count (dose: 80.0 mg/kg/injection, schedule: Q01DX001 (ip), vehicle: saline) turn out when `O=[As](O)(O[As](=O)(O)c1ccccc1)c1ccccc1` was run?
**A.** 2 of 4

**Q.** What about the survivor count (dose: 100.0 mg/kg/injection, schedule: Q01DX001 (ip), vehicle: saline) of the same molecule?
**A.** 0 of 4

**Q.** What about the survivor count (dose: 200.0 mg/kg/injection, schedule: Q01DX001 (ip), vehicle: saline) of the same molecule?
**A.** 0 of 4

**Q.** And the survivor count (dose: 400.0 mg/kg/injection, schedule: Q01DX001 (ip), vehicle: saline)?
**A.** 0 of 4

**Q.** With `COC(=O)Nc1cccc2c1C=CC(C#N)N2C(=O)OC` (configuration not stated) as the molecule, how does the survivor count [4] read?
**A.** 1 of 6

**Q.** Which results are given for `[N-]=[N+]=C1C(=O)NC(=O)N2C3CC(O)C(COC12)O3` (configuration not stated)?
**A.** T/C (dose: 200.0 mg/kg/injection, schedule: Q01DX Z (ip), vehicle: saline): 125 % of control; survivor count (dose: 300.0 mg/kg/injection, schedule: Q01DX Z (ip), vehicle: carboxymethylcellulose (CMC)): 3 of 6; T/C (dose: 300.0 mg/kg/injection, schedule: Q01DX Z (ip), vehicle: saline): 125 % of control; survivor count (dose: 400.0 mg/kg/injection, schedule: Q01DX009 (ip), vehicle: saline): 5 of 6; survivor count (dose: 450.0 mg/kg/injection, schedule: Q01DX Z (ip), vehicle: carboxymethylcellulose (CMC)): 0 of 6; T/C (dose: 450.0 mg/kg/injection, schedule: Q01DX Z (ip), vehicle: saline): 125 and 139 % of control; survivor count (dose: 675.0 mg/kg/injection, schedule: Q01DX Z (ip), vehicle: carboxymethylcellulose (CMC)): 0 of 6

**Q.** For `Nc1nc(SN=Nc2ccc(S(N)(=O)=O)cc2)c2[nH]cnc2n1`, which T/C (dose: 0.31 mg/kg/injection, schedule: Q01DX Z (ip), vehicle: other) is on record?
**A.** 125 % of control

**Q.** What about the T/C (dose: 0.63 mg/kg/injection, schedule: Q01DX Z (ip), vehicle: other) of the same molecule?
**A.** 141 and 142 % of control

**Q.** And the T/C (dose: 1.25 mg/kg/injection, schedule: Q01DX Z (ip), vehicle: other)?
**A.** 142 % of control

**Q.** And the T/C (dose: 2.5 mg/kg/injection, schedule: Q01DX Z (ip), vehicle: other)?
**A.** 145 % of control

**Q.** What about the T/C (dose: 3.0 mg/kg/injection, schedule: Q04DX003 (ip), vehicle: saline with Tween-80) of the same molecule?
**A.** 137 % of control

**Q.** What about the T/C (dose: 5.0 mg/kg/injection, schedule: Q01DX Z (ip), vehicle: other) of the same molecule?
**A.** 134 % of control

**Q.** And the T/C (dose: 6.0 mg/kg/injection, schedule: Q04DX003 (ip), vehicle: saline with Tween-80)?
**A.** 139 % of control

**Q.** And the T/C (dose: 7.0 mg/kg/injection, schedule: Q01DX Z (ip), vehicle: other)?
**A.** 147 % of control

**Q.** What about the T/C (dose: 11.0 mg/kg/injection, schedule: Q01DX Z (ip), vehicle: other) of the same molecule?
**A.** 143 % of control

**Q.** And the T/C (dose: 12.5 mg/kg/injection, schedule: Q04DX003 (ip), vehicle: saline with Tween-80)?
**A.** 145 % of control [5 of 6 alive]

**Q.** What about the T/C (dose: 17.0 mg/kg/injection, schedule: Q01DX Z (ip), vehicle: other) of the same molecule?
**A.** 142 and 148 % of control

**Q.** What about the T/C (dose: 25.0 mg/kg/injection, schedule: Q04DX003 (ip), vehicle: saline with Tween-80) of the same molecule?
**A.** 147 % of control

**Q.** And the T/C (dose: 26.0 mg/kg/injection, schedule: Q01DX Z (ip), vehicle: other)?
**A.** 134 % of control

**Q.** What about the T/C (dose: 34.0 mg/kg/injection, schedule: Q01DX Z (ip), vehicle: other) of the same molecule?
**A.** 130 and 134 % of control

**Q.** What about the T/C (dose: 50.0 mg/kg/injection, schedule: Q04DX003 (ip), vehicle: saline with Tween-80) of the same molecule?
**A.** 140 % of control

**Q.** And the T/C (dose: 100.0 mg/kg/injection, schedule: Q04DX003 (ip), vehicle: saline with Tween-80)?
**A.** 142 % of control

**Q.** With `Cc1ccc(NC(=O)Nc2ccc(Cl)c(Cl)c2)c(C)c1` as the molecule, how does the survivor count [4] read?
**A.** 6 of 6

**Q.** With `Cc1c2oc3c(C)ccc(C(=O)NC4C(=O)NC(C(C)C)C(=O)N(C)CC(=O)N(C)CC(=O)N(C)C(C(C)C)C(=O)OC4C)c3nc-2c(C(=O)NC2C(=O)NC(C(C)C)C(=O)N(C)CC(=O)N(C)CC(=O)N(C)C(C(C)C)C(=O)OC2C)c(N)c1=O` (configuration not stated) as the molecule, how does the survivor count (dose: 8.0 mg/kg/injection, schedule: Q01DX001 (ip), vehicle: saline + alcohol) read?
**A.** 1 of 8

**Q.** What about the T/C (dose: 500.0 micrograms/kg/injection, schedule: Q01DX009 (ip), vehicle: saline + alcohol) of the same molecule?
**A.** 145 % of control

**Q.** What about the T/C (dose: 1000.0 micrograms/kg/injection, schedule: Q01DX009 (ip), vehicle: saline + alcohol) of the same molecule?
**A.** 138 % of control

**Q.** What about the T/C (dose: 3000.0 micrograms/kg/injection, schedule: Q04DX003 (ip), vehicle: saline + alcohol) of the same molecule?
**A.** 135 % of control

**Q.** With `COc1ccc(C(CC(=O)c2ccc3c(c2)OCO3)c2c(O)c3ccccc3oc2=O)cc1OC` (configuration not stated) as the molecule, how does the survivor count [5] read?
**A.** 5 of 6

**Q.** `c1ccc([P+](Cc2nc3ccccc3[nH]2)(c2ccccc2)c2ccccc2)cc1` was tested. Which survivor count (dose: 50.0 mg/kg/injection, schedule: Q01DX009 (ip), vehicle: saline) did it give?
**A.** 6 of 6

**Q.** What about the survivor count [1] of the same molecule?
**A.** 5 of 6

**Q.** What about the survivor count [3] of the same molecule?
**A.** 0 of 3

**Q.** What does the source list for `CNC(Cc1ccc(OCc2ccccc2)cc1)C(=O)NC(CC(C)C)C(=O)OC` (configuration not stated)?
**A.** survivor count (dose: 200.0 mg/kg/injection, schedule: Q01DX009 (ip), vehicle: saline): 3 of 6; survivor count (dose: 400.0 mg/kg/injection, schedule: Q04DX003 (ip), vehicle: saline): 3 of 6

**Q.** With `COc1cc2c(cc1[N+](=O)[O-])-c1ccc([N+](=O)[O-])cc1/C2=N/NC(N)=S` as the molecule, how does the survivor count (dose: 150.0 mg/kg/injection, schedule: Q01DX001 (ip), vehicle: carboxymethylcellulose (CMC)) read?
**A.** 0 of 6

**Q.** And the survivor count (dose: 300.0 mg/kg/injection, schedule: Q01DX001 (ip), vehicle: carboxymethylcellulose (CMC))?
**A.** 0 of 6

**Q.** With `C/C(=C\c1ccc2c(c1)OCO2)[N+](=O)[O-]` as the molecule, how does the survivor count [3] read?
**A.** 2 of 6

**Q.** And the survivor count [2]?
**A.** 3 of 3

**Q.** What about the survivor count [4] of the same molecule?
**A.** 0 of 6

**Q.** Which survivor count [5] does the source give for `CC1(c2ccc(O)cc2)CCC(C(C)(C)c2ccc(O)cc2)CC1` (configuration not stated) here?
**A.** 5 of 6

**Q.** `CCN(CC)c1ccc(-c2cc(NS(=O)(=O)c3ccccc3)ccc2NS(=O)(=O)c2ccccc2)cc1` was tested. Which survivor count (dose: 50.0 mg/kg/injection, schedule: Q01DX001 (ip), vehicle: Klucel (hydroxypropylcellulose) (HPC)) did it give?
**A.** 6 of 6

**Q.** What about the survivor count (dose: 200.0 mg/kg/injection, schedule: Q01DX001 (ip), vehicle: Klucel (hydroxypropylcellulose) (HPC)) of the same molecule?
**A.** 6 of 6
